Assay results taken from article doi:10.1101/2025.03.27.645694.
These are yes or no findings as the source states them, for the method shown. Binding seen in cells or lysates may run through a third protein. Some binding calls cover weakened binding; strength is not graded here. Tags and fused reporters may be left off the sequences shown.

Amino acid sequences for entries named in this document (tags omitted).
UniProt Q9D9L5: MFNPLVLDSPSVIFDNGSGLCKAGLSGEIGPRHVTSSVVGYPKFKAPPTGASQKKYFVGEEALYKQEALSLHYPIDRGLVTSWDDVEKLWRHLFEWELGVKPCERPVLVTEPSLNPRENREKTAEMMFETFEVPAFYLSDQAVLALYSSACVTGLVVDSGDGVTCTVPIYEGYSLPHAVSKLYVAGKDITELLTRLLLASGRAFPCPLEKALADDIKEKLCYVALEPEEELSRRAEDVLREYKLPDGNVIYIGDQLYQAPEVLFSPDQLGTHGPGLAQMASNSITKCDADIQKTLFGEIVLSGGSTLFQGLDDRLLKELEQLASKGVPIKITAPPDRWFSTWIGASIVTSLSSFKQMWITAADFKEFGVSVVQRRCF

Biological target: T1, Actin-related protein M1 (ARPM1), HA-tagged (mouse) (UniProt Q8BXF8)
T1 sequence: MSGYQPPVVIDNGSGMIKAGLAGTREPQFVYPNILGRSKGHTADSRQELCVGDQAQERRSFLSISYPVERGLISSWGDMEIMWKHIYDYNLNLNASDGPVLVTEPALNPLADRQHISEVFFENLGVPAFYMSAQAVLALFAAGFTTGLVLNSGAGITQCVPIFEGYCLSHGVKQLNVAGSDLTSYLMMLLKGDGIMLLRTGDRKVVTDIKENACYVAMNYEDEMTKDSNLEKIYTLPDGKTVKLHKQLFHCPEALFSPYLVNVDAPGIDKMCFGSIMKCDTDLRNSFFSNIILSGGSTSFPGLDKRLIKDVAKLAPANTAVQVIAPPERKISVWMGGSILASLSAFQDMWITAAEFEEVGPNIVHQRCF
Assay: co-IP

binding: binds
Substance: ACTRT2, Myc-tagged (from UniProt Q9D9L5 1-377)
